The numbers were not newly measured in patent US11028075B2, “Therapeutic compounds and methods of use thereof” (GENENTECH, INC., priority 2018, dated 2021), which cites them from elsewhere.

The conditions of the data set: administered topically (Lidoderm patch); cited from earlier work.

Turning to `CCN(CC)CC(=O)Nc1c(C)cccc1C` [lidocaine], the plasma concentrations entry is recorded as “about 1 μM”.
